Reference: publication PMC9648840
These are yes or no findings as the source states them, for the method shown. In cells and extracts the contact can be indirect. Some results given as binding are weak or reduced against the parent protein; the word gives no strength. Tags and fused reporters may be left off the sequences shown.

By UniProt entry, the sequences of proteins in these tests, tags left out.
UniProt O02799: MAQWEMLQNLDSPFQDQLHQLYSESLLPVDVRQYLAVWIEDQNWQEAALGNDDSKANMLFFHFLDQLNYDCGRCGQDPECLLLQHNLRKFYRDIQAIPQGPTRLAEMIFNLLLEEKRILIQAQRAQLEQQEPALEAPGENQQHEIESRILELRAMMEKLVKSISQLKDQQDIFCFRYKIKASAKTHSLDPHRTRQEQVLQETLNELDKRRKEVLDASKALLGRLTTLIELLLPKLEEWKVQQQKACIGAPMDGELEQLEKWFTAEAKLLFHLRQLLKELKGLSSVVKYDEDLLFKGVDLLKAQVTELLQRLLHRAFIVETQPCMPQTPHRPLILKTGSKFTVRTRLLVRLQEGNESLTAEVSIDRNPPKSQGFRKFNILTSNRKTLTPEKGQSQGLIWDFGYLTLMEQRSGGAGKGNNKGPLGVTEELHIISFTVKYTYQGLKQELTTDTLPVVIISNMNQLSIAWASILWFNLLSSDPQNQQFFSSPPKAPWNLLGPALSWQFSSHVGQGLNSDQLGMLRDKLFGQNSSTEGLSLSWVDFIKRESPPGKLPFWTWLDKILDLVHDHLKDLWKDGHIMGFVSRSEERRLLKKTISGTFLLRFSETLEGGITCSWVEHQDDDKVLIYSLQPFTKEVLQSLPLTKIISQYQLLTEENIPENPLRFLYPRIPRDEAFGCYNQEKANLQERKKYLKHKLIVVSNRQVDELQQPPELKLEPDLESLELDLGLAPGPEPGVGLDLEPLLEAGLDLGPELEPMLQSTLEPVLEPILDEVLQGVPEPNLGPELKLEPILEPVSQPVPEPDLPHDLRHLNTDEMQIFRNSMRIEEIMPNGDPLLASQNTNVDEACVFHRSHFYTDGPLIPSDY

Biological target: T1, HA-STAT1 (UniProt Q764M5)
T1 sequence: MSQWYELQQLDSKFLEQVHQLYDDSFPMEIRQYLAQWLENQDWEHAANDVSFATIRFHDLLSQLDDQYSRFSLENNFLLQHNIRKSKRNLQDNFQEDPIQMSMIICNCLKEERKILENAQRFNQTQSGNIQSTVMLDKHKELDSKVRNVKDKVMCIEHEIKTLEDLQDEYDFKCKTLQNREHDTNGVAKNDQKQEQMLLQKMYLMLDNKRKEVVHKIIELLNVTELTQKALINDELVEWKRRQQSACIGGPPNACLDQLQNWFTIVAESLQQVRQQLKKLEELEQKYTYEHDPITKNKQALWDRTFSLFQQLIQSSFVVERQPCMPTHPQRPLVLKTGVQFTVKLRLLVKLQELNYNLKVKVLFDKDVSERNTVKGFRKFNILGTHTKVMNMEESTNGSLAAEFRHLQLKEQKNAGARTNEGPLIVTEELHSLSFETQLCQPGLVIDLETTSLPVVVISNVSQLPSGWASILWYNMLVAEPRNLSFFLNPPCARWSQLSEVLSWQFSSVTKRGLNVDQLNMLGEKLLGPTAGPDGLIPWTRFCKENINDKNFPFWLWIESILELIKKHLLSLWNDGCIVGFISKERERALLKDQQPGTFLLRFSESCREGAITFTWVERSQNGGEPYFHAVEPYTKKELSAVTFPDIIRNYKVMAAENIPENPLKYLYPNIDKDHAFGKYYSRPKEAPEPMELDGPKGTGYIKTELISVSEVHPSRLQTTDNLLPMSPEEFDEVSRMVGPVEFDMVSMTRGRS
Experiment: co-IP

Substance: Myc-STAT2 (from UniProt O02799 1-864)
- binding: binds
